The list shows a part of the results.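 How the source made its calls: active = dose-dependent thermal stabilisation significant by F-test of dose-response against flat model at 10% FDR; inactive = not significant.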

By UniProt entry, the sequences of proteins in these tests, tags left out. Where a name states a change or a piece, a line headed by the entry shows the natural chain unless it says otherwise.
UniProt O14980, whole entry: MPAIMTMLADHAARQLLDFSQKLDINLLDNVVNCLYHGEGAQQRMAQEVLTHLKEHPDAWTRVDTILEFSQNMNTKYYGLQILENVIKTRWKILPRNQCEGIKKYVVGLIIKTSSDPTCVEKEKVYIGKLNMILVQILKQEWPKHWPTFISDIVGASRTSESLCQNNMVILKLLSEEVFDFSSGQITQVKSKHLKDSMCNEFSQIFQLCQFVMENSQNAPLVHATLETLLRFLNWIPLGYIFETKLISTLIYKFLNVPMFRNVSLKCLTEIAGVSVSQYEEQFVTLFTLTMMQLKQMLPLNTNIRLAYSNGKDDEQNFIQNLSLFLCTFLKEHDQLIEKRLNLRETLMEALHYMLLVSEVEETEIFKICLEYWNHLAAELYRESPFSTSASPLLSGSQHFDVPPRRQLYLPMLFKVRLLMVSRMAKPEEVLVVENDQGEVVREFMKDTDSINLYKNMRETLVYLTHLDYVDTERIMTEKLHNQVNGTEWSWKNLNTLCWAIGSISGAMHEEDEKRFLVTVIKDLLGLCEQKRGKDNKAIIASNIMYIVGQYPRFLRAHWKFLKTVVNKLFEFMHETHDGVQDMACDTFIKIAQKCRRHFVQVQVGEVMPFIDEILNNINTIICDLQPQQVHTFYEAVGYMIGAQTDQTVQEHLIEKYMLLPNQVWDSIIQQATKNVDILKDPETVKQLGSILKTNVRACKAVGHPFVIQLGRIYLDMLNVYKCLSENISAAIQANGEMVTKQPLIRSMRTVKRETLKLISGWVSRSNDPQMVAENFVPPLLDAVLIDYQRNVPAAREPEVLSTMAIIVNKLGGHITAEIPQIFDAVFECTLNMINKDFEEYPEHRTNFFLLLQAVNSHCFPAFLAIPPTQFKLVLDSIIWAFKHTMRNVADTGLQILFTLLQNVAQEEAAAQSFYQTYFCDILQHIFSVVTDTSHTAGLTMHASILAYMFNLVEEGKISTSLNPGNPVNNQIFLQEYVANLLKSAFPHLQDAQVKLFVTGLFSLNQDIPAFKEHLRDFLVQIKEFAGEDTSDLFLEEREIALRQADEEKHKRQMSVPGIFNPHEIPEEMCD
UniProt P68036, whole entry: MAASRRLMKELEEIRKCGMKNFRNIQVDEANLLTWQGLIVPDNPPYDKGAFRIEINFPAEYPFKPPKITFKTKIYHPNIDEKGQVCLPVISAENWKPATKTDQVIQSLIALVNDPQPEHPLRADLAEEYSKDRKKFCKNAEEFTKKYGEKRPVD
UniProt Q9NRH1: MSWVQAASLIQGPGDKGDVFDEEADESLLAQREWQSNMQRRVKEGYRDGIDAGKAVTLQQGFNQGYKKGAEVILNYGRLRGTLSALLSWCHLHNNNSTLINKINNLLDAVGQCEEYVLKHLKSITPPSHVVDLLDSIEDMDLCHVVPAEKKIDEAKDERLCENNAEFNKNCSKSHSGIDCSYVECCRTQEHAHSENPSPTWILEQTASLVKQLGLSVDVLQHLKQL
UniProt Q9NVA1: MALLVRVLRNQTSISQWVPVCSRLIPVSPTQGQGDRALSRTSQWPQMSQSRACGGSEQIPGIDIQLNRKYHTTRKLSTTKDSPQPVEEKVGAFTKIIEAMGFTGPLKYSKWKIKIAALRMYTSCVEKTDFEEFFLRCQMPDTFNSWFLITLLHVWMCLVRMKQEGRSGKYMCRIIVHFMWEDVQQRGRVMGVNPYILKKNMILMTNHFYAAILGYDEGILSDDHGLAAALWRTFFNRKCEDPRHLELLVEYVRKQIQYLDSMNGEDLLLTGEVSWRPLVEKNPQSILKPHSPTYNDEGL
UniProt Q96GY0: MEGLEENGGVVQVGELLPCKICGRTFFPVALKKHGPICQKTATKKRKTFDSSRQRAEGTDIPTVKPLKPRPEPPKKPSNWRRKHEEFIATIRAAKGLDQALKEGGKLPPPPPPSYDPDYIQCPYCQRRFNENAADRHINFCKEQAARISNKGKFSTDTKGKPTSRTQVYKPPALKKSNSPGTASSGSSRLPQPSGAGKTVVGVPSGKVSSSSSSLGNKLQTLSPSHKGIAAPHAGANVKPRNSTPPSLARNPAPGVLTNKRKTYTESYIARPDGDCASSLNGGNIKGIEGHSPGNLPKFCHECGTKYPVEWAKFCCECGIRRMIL
UniProt Q9H8U3: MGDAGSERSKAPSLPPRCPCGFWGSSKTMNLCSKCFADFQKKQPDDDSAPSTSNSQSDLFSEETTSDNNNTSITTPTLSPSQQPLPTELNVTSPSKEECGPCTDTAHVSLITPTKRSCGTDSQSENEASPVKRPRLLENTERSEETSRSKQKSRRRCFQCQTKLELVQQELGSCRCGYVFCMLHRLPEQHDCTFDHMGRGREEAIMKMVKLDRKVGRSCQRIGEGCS
UniProt O75083: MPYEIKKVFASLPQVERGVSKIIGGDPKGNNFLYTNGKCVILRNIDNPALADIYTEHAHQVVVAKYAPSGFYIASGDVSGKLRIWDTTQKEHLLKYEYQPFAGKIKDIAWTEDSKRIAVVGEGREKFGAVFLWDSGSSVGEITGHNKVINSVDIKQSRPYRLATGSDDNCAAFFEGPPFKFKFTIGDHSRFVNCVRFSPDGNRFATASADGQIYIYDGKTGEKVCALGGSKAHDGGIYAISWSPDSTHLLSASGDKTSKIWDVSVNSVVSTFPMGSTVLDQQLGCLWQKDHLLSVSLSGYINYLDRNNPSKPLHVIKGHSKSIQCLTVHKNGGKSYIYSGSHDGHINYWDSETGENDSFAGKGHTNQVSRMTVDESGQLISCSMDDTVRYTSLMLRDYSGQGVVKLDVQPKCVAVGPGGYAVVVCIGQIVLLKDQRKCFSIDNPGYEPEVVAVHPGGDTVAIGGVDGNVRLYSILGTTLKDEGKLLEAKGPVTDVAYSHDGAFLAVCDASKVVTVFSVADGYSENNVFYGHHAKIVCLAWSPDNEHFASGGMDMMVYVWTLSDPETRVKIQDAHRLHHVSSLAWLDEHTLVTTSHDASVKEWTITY
UniProt Q8TCF1: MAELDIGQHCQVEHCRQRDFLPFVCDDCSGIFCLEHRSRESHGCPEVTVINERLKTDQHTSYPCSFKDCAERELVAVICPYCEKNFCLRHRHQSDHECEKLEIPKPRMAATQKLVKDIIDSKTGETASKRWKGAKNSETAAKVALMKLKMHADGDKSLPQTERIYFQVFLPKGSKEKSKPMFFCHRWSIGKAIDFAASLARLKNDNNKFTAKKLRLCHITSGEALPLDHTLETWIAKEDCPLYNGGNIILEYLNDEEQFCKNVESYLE
UniProt Q9Y4E1, whole entry: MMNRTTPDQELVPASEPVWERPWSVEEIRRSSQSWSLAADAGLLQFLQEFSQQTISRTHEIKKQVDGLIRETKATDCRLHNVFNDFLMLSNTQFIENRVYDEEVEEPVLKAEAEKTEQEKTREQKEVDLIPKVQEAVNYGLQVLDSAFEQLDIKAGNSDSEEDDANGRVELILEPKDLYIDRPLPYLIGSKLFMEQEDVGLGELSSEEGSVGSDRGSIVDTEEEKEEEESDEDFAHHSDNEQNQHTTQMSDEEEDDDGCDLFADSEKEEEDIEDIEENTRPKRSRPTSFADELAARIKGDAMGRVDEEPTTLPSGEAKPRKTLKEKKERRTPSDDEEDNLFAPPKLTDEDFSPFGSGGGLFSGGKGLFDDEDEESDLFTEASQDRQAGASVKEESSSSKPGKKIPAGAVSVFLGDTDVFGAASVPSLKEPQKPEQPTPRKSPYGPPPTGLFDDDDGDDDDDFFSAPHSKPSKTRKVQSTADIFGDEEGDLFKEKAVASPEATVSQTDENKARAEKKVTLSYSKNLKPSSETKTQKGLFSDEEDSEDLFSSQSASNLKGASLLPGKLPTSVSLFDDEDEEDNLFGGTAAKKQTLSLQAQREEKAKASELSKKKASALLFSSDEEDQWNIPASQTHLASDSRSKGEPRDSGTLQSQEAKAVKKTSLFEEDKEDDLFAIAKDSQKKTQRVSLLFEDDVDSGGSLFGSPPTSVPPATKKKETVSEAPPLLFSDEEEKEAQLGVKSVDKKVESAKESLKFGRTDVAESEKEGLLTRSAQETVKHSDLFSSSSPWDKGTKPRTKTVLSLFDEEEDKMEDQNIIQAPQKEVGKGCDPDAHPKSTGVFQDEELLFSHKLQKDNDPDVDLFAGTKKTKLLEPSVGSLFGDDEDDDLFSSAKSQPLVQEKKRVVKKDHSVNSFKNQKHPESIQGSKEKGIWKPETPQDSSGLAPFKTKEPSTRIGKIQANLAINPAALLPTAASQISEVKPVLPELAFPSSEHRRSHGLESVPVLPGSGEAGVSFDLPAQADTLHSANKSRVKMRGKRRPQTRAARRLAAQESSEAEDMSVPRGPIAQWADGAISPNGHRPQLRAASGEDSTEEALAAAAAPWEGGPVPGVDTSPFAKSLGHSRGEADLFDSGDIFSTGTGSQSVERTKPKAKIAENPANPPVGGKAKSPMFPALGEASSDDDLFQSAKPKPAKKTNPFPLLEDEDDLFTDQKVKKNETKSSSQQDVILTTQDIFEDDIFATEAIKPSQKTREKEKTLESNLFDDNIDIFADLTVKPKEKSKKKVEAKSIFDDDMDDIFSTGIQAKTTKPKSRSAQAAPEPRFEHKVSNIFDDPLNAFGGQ
UniProt P06132: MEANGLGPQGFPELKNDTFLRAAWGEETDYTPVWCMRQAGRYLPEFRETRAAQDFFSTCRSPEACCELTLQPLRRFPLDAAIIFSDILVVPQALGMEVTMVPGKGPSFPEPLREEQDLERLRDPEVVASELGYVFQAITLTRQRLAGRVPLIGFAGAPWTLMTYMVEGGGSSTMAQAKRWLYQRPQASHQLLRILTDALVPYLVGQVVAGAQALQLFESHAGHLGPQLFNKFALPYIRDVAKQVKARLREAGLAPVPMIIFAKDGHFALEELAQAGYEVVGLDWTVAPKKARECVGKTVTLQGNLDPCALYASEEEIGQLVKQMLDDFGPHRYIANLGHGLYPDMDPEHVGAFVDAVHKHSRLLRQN
UniProt P22415: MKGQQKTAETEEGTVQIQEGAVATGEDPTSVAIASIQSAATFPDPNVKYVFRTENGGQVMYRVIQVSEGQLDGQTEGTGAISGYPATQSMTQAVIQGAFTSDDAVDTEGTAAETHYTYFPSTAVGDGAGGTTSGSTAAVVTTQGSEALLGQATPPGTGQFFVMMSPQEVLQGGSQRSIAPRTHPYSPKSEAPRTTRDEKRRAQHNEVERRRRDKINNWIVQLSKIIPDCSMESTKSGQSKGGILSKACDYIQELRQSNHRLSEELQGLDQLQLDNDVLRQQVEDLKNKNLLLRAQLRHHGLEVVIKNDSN
UniProt Q92558: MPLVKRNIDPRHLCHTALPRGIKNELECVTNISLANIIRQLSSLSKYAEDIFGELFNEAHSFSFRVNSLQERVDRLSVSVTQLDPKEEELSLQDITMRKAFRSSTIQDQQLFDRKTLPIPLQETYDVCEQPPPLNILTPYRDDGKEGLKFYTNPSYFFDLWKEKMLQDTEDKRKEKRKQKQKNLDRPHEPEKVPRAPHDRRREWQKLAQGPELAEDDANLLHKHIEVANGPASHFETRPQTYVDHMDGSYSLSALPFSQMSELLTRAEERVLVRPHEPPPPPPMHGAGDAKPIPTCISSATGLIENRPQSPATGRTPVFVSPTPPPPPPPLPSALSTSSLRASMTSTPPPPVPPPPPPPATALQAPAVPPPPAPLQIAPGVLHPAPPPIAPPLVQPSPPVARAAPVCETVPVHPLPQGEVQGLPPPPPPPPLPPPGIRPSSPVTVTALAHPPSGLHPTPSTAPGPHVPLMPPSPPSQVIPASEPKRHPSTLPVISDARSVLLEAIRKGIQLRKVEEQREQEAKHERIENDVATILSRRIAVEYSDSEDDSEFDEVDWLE
UniProt Q14694, whole entry: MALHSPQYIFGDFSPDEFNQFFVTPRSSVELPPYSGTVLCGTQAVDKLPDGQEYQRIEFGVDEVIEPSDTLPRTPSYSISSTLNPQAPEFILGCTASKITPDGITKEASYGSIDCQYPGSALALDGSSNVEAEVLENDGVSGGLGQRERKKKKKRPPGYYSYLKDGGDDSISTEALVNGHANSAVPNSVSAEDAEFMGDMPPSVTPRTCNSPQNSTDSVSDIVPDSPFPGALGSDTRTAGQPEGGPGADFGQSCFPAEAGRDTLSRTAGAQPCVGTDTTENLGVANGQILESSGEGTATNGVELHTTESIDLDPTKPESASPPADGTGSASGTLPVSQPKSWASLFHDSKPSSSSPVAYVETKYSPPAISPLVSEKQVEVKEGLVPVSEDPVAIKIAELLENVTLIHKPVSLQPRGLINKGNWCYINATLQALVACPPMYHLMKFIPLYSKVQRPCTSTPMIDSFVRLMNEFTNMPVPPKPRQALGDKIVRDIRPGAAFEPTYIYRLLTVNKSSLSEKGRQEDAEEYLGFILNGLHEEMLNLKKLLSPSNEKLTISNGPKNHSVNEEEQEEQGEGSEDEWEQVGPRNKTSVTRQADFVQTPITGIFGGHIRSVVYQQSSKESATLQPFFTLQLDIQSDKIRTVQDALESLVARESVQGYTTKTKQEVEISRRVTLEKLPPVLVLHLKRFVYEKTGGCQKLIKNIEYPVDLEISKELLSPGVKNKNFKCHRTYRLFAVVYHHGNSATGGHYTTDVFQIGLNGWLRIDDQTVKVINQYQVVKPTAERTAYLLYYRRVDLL

36 targets from the supplement of paper PMC7666118 can be followed below.

Compound in this assay: Nc1nc2c(ncn2[C@@H]2O[C@H](COP(=O)(O)OP(=O)(O)OP(=O)(O)O)[C@@H](O)[C@H]2O)c(=O)[nH]1
The experiment in a line: dose-dependent thermal stabilisation call (2D-TPP, DLPTP, 10% FDR) (binary (1 = stabilised)); higher = stabilised by the compound. The settings on record: system: Jurkat gel-filtered lysate; concentration range 1-500 µM.
In the case of UFC1 (UniProt Q9Y3C8), the “dose-dependent thermal stabilisation call” value is inactive: 0.

On to WDR34 (UniProt Q96EX3), for which the “dose-dependent thermal stabilisation call” value was active: 1.

For WBP4 (UniProt O75554), the “dose-dependent thermal stabilisation call” value is inactive: 0.

On to WDR62 (UniProt O43379), for which the “dose-dependent thermal stabilisation call” value is inactive: 0.

VAV3 (UniProt Q9UKW4): the “dose-dependent thermal stabilisation call” value is active: 1.

Take XPO1 (UniProt O14980): the “dose-dependent thermal stabilisation call” value was active: 1.

As to UBE2L3 (UniProt P68036), the “dose-dependent thermal stabilisation call” value is inactive: 0.

On to WDR20 (UniProt Q8TBZ3), for which the “dose-dependent thermal stabilisation call” value was inactive: 0.

As to WASHC2A (UniProt Q641Q2), the “dose-dependent thermal stabilisation call” value was inactive: 0.

Turning to VPS8 (UniProt Q8N3P4), the “dose-dependent thermal stabilisation call” value is inactive: 0.

As to VASP (UniProt P50552), the “dose-dependent thermal stabilisation call” value is inactive: 0.

For WDR82 (UniProt Q6UXN9), the “dose-dependent thermal stabilisation call” value is inactive: 0.

In the case of UPF3A (UniProt Q9H1J1), the “dose-dependent thermal stabilisation call” value was inactive: 0.

In the case of UFM1 (UniProt P61960), the “dose-dependent thermal stabilisation call” value is inactive: 0.

On to YAE1D1 (UniProt Q9NRH1), for which the “dose-dependent thermal stabilisation call” value was inactive: 0.

Regarding UQCC1 (UniProt Q9NVA1), the “dose-dependent thermal stabilisation call” value is inactive: 0.

ZC2HC1A (UniProt Q96GY0): the “dose-dependent thermal stabilisation call” value is inactive: 0.

For the target ZFAND3 (UniProt Q9H8U3), the “dose-dependent thermal stabilisation call” value is inactive: 0.

Consider UNC119 (UniProt Q13432), for which the “dose-dependent thermal stabilisation call” value is active: 1.

With WDR1 (UniProt O75083), the “dose-dependent thermal stabilisation call” value was inactive: 0.

In the case of VCPIP1 (UniProt Q96JH7), the “dose-dependent thermal stabilisation call” value was inactive: 0.

On to ZFAND1 (UniProt Q8TCF1), for which the “dose-dependent thermal stabilisation call” value was inactive: 0.

For WASHC2C (UniProt Q9Y4E1), the “dose-dependent thermal stabilisation call” value is inactive: 0.

Consider VAT1 (UniProt Q99536), for which the “dose-dependent thermal stabilisation call” value is inactive: 0.

As for USP47 (UniProt Q96K76), the “dose-dependent thermal stabilisation call” value is inactive: 0.

As to USP48 (UniProt Q86UV5), the “dose-dependent thermal stabilisation call” value was active: 1.

On to UBQLN4 (UniProt Q9NRR5), for which the “dose-dependent thermal stabilisation call” value was inactive: 0.

As for ZBED1 (UniProt O96006), the “dose-dependent thermal stabilisation call” value is inactive: 0.

As for UBE2J1 (UniProt Q9Y385), the “dose-dependent thermal stabilisation call” value is inactive: 0.

Consider UROD (UniProt P06132), for which the “dose-dependent thermal stabilisation call” value is inactive: 0.

Turning to VPS35 (UniProt Q96QK1), the “dose-dependent thermal stabilisation call” value is inactive: 0.

With YWHAQ (UniProt P27348), the “dose-dependent thermal stabilisation call” value is inactive: 0.

As to USF1 (UniProt P22415), the “dose-dependent thermal stabilisation call” value is inactive: 0.

With WASF1 (UniProt Q92558), the “dose-dependent thermal stabilisation call” value is inactive: 0.

Regarding USP22 (UniProt Q9UPT9), the “dose-dependent thermal stabilisation call” value is inactive: 0.

For USP10 (UniProt Q14694), the “dose-dependent thermal stabilisation call” value is inactive: 0.
